Values from PubChem BioAssay AID602196 (INSERM, 2012)
Shown is an unselected part of about 23,000 reagents. 455 of them (2%) were called active. 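Active includes both protection and sensitisation; some change values fall well beyond the stated -50 to +50 range.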 Not all columns of the deposit are shown. No sequences are given here. Not given: the amount of reagent.

Screen: 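Knock-downs that protect lung cancer cells from cisplatin or sensitise them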
Cells: human A549 lung cancer cells
Knock-down reagent: siRNA pair against human genes
Timing: 48 h transfection before cisplatin; time from cisplatin to read-out not stated
Treatment: cisplatin at a dose killing half of control-siRNA cells; exact dose and duration not given
Measured: 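Cisplatin cell death as a shift from the 50% death seen with control siRNA; siRNAs toxic or growth-blocking alone scored 0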
Reading the numbers: two-siRNA summed score (-2 to +2): higher = both siRNAs protect from cisplatin killing; -2 means both sensitise; mean protection from cisplatin (shift in death): higher = protection from cisplatin killing
Rule for the call: 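Each siRNA scores 0 if harmful alone by LDH or WST-1, otherwise +1 if it reduces and -1 if it increases cisplatin killing; a gene is active when both siRNAs agree (sum +2 or -2)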
Meaning of the calls: active = both siRNAs shift cisplatin killing the same way; inactive = no consistent shift, or siRNA harmful alone

| target gene | two-siRNA summed score (-2 to +2) | mean protection from cisplatin (shift in death) (%) | call |
| --- | --- | --- | --- |
| BCHE (GeneID 590) | 0 | -1.2 | inactive |
| LYZL6 (GeneID 57151) | 0 | 7.8 | inactive |
| RNF113B (GeneID 140432) | 0 | 14.5 | inactive |
| GLMP (GeneID 112770) | 0 | -2.6 | inactive |
| RLN2 (GeneID 6019) | 0 | 4.2 | inactive |
| LOC441367 | 0 | -0.1 | inactive |
| VPS45 (GeneID 11311) | 2 | 16.8 | active |
| C17orf58 (GeneID 284018) | 0 | 8 | inactive |
| ATP6AP2 (GeneID 10159) | 0 | 8.1 | inactive |
| MBNL3 (GeneID 55796) | 0 | 14.9 | inactive |
| LOC339344 | 1 | 12.1 | inactive |
| CEP78 (GeneID 84131) | 0 | 9.5 | inactive |
| RADX (GeneID 55086) | 0 | 2.9 | inactive |
| DNM3 (GeneID 26052) | 0 | 12.5 | inactive |
| SUCO (GeneID 51430) | 0 | 2.7 | inactive |
| COX7B2 (GeneID 170712) | 0 | 7.5 | inactive |
| LOC392159 | 0 | 12.1 | inactive |
| REXO6P (GeneID 158035) | 0 | 9.5 | inactive |
| UROD (GeneID 7389) | 0 | -9.3 | inactive |
| IZUMO1 (GeneID 284359) | 1 | 20.5 | inactive |
| TUBA1C (GeneID 84790) | 0 | 2.7 | inactive |
| ABI2 (GeneID 10152) | 0 | 3.2 | inactive |
| USP45 (GeneID 85015) | 0 | 13.2 | inactive |
| PDHA2 (GeneID 5161) | -1 | -9.7 | inactive |
| LOC441399 | 0 | -2.7 | inactive |
| PSMD5 (GeneID 5711) | 0 | -7 | inactive |
| PLEKHJ1 (GeneID 55111) | 0 | 0.8 | inactive |
| ZC3HAV1 (GeneID 56829) | 0 | 7.2 | inactive |
| SLC35B1 (GeneID 10237) | 0 | 3.2 | inactive |
| ACSM2A (GeneID 123876) | 0 | 18.3 | inactive |
| MYF6 (GeneID 4618) | -1 | -24.9 | inactive |
| RIT1 (GeneID 6016) | 1 | 6.9 | inactive |
| NDRG3 (GeneID 57446) | 0 | 7.3 | inactive |
| FLJ41170 (retired record) (GeneID 440200) | 0 | 14.7 | inactive |
| LOC286526 | 1 | -0.3 | inactive |
| ALDH5A1 (GeneID 7915) | 0 | 5.4 | inactive |
| ARHGAP42 (GeneID 143872) | 0 | -0.1 | inactive |
| LOC285253 | 0 | 3.6 | inactive |
| LOC390595 | 1 | 21 | inactive |
| ETFBKMT (GeneID 254013) | 0 | -5.4 | inactive |
| ATF6B (GeneID 1388) | 0 | -2 | inactive |
| FMO4 (GeneID 2329) | -1 | -12.2 | inactive |
| ZYG11B (GeneID 79699) | 0 | 16.4 | inactive |
| OTUB1 (GeneID 55611) | 0 | 6.6 | inactive |
| LOC391142 | 0 | 1.3 | inactive |
| HOXA4 (GeneID 3201) | 0 | 7.3 | inactive |
| SNRPG (GeneID 6637) | 0 | 2.6 | inactive |
| GTF2F1 (GeneID 2962) | 0 | 7.7 | inactive |
| TTBK2 (GeneID 146057) | 0 | 11.7 | inactive |
| LOC440113 | 0 | 8.6 | inactive |
| NAA35 (GeneID 60560) | 0 | 1.8 | inactive |
| FKBP9 (GeneID 11328) | 0 | 9.8 | inactive |
| DALRD3 (GeneID 55152) | 0 | -2.2 | inactive |
| HVCN1 (GeneID 84329) | 1 | 7.2 | inactive |
| SCN9A (GeneID 6335) | 0 | -1 | inactive |
| LOC389687 | 0 | 4 | inactive |
| TRIM68 (GeneID 55128) | 0 | -16.3 | inactive |

5 entries already listed, sorted by “mean protection from cisplatin (shift in death) (%)”, low to high:
| target gene | two-siRNA summed score (-2 to +2) | mean protection from cisplatin (shift in death) (%) | call |
| --- | --- | --- | --- |
| FMO4 (GeneID 2329) | -1 | -12.2 | inactive |
| ETFBKMT (GeneID 254013) | 0 | -5.4 | inactive |
| ATF6B (GeneID 1388) | 0 | -2 | inactive |
| OTUB1 (GeneID 55611) | 0 | 6.6 | inactive |
| ZYG11B (GeneID 79699) | 0 | 16.4 | inactive |
